Test results taken from paper PMC7437177.
These are yes or no findings as the source states them, for the method shown. Binding seen in cells or lysates may run through a third protein. Some entries that bind do so weakly or less than the wild type. Where a sequence is shown, tags or fusion partners need not be part of it.

What was measured:
Assay in all cases: co-IP; nuclear lysates (NE-PER kit) of HEK293T cells co-transfected with FLAG-MATR3 and V5-HNRNPM, 24 h after transfection; FLAG antibody overnight at 4 °C, Protein G Dynabeads 4 h at 4 °C; blot for V5; in one panel treated with 1 mg/ml RNase A for 1 h at 4 °C
[1] = biological target: T1, FLAG-MATR3 F115C (human) (UniProt P43243)
T1 sequence: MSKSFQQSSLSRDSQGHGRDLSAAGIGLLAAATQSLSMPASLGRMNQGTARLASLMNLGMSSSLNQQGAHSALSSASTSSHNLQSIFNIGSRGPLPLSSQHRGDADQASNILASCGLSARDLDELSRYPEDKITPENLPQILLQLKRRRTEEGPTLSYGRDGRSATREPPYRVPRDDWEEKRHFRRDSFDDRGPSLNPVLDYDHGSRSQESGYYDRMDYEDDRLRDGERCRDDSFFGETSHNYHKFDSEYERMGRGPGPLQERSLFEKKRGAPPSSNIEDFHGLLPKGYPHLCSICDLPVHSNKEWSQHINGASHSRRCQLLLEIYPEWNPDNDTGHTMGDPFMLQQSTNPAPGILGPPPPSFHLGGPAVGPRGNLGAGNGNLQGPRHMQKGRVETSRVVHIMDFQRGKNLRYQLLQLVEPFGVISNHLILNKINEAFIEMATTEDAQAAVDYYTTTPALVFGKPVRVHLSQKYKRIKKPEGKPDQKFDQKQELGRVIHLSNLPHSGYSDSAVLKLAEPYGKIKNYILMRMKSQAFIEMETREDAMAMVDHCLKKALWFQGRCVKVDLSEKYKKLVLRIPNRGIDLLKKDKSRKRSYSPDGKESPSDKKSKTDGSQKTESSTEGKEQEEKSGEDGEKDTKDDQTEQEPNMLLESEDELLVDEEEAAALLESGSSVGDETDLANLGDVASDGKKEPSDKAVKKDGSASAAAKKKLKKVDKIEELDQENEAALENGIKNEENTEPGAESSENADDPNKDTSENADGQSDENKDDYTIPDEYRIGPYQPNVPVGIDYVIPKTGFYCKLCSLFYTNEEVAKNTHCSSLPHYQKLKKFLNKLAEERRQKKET

[2] = biological target: T2, FLAG-MATR3 S85C (human) (UniProt P43243)
T2 sequence: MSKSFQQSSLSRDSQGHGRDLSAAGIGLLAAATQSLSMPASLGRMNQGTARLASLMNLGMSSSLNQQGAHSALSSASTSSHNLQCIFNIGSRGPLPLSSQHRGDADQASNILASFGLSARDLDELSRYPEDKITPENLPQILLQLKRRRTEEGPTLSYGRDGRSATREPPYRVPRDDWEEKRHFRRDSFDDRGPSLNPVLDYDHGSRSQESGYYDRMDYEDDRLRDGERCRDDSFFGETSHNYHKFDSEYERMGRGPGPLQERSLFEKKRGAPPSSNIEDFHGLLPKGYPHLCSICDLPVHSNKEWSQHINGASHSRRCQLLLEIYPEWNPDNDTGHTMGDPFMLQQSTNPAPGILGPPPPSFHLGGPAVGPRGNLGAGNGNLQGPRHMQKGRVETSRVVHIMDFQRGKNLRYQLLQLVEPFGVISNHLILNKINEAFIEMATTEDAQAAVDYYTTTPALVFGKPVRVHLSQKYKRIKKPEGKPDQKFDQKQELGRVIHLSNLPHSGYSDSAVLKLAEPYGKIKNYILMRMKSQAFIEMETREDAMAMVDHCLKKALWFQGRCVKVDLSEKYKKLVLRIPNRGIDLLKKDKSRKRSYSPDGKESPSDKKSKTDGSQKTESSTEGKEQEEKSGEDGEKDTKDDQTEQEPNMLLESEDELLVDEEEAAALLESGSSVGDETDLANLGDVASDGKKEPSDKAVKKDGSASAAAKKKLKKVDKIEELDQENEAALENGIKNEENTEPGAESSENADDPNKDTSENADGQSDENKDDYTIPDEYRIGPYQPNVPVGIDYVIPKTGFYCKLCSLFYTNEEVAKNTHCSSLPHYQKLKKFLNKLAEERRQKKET

[3] = biological target: T3, FLAG-MATR3 WT (Matrin-3, wild type) (human) (UniProt P43243)
T3 sequence: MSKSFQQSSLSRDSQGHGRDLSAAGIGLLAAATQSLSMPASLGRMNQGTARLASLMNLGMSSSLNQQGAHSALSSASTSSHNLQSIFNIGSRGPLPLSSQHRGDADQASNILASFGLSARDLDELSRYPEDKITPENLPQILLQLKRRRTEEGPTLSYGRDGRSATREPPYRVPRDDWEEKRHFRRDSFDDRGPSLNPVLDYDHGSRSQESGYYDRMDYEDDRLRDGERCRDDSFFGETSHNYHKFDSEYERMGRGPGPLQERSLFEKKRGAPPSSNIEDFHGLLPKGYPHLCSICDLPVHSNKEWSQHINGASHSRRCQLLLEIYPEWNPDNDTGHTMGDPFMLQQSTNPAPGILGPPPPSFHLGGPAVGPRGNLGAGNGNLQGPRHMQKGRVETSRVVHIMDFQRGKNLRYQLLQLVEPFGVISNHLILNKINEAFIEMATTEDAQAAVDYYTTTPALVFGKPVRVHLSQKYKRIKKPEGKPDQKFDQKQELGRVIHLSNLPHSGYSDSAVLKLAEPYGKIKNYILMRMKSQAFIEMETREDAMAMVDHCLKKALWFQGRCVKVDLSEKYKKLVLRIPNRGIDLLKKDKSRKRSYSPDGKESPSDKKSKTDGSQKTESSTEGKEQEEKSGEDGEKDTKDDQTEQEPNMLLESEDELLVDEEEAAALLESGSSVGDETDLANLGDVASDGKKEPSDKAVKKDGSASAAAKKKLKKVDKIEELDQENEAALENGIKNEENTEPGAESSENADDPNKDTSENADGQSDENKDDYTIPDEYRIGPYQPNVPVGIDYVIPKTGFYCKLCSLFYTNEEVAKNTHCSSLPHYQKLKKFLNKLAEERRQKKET

Measured: binding

B1: V5-hnRNPM (protein, UniProt P52272 1-730)
chain: MAAGVEAAAEVAATEIKMEEESGAPGVPSGNGAPGPKGEGERPAQNEKRKEKNIKRGGNRFEPYANPTKRYRAFITNIPFDVKWQSLKDLVKEKVGEVTYVELLMDAEGKSRGCAVVEFKMEESMKKAAEVLNKHSLSGRPLKVKEDPDGEHARRAMQKVMATTGGMGMGPGGPGMITIPPSILNNPNIPNEIIHALQAGRLGSTVFVANLDYKVGWKKLKEVFSMAGVVVRADILEDKDGKSRGIGTVTFEQSIEAVQAISMFNGQLLFDRPMHVKMDERALPKGDFFPPERPQQLPHGLGGIGMGLGPGGQPIDANHLNKGIGMGNIGPAGMGMEGIGFGINKMGGMEGPFGGGMENMGRFGSGMNMGRINEILSNALKRGEIIAKQGGGGGGGSVPGIERMGPGIDRLGGAGMERMGAGLGHGMDRVGSEIERMGLVMDRMGSVERMGSGIERMGPLGLDHMASSIERMGQTMERIGSGVERMGAGMGFGLERMAAPIDRVGQTIERMGSGVERMGPAIERMGLSMERMVPAGMGAGLERMGPVMDRMATGLERMGANNLERMGLERMGANSLERMGLERMGANSLERMGPAMGPALGAGIERMGLAMGGGGGASFDRAIEMERGNFGGSFAGSFGGAGGHAPGVARKACQIFVRNLPFDFTWKMLKDKFNECGHVLYADIKMENGKSKGCGVVKFESPEVAERACRMMNGMKLSGREIDVRIDRNA
binds: all assays above
